Assay results as given in the supplement of paper PMC12067093, “Discovery and optimisation of a covalent ligand for TRIM25 and its application to targeted protein ubiquitination” (Chemical Science, 2025).
The list shows a part of the results.

Compound: CC1Cc2ccccc2N1C(=O)C1CCCN(C1)C(=O)CCl (mixture of isomers) [TRIM25 ligand 11 (diastereomer mixture)]
Assay: probe-labelled cysteine peptide fold change vs DMSO (competition) (log2 fold change); higher = less target engagement (more negative = stronger competition)
Conditions: THP-1, incubation time: 4 h
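Further: competitive chemoproteomic profiling in live THP-1 cells with an iodoacetamide desthiobiotin (IA-DTB) probe, comparing probe-labelled peptide intensities in compound-treated cells against DMSO-treated controls.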

Target | probe-labelled cysteine peptide fold change (10 µM) | probe-labelled cysteine peptide fold change (50 µM)
MORC3_Q14149_349_ANNMGVGVVGIIECNFLKPTHNK (UniProt Q14149) | -0.167 | -0.429
MGA_Q8IWI9_1313_SSCNEGESSSTSYMHQR (UniProt Q8IWI9) | 0.217 | -0.252
MKLN1_Q9UL63_393_LVFDHQMCMDSEK (UniProt Q9UL63) | 0.0587 | -0.102
MGMT_P16455_24_LELSGCEQGLHEIK (UniProt P16455) | -0.216 | -0.404
MRPL38_Q96DV4_321_KHQETMTPAGLSFFQCR (UniProt Q96DV4) | 0.00503 | 0.134
MNDA_P41218_385_LVCGSHSFIK (UniProt P41218) | 0.0242 | 0.129
MMTAG2_Q9BU76_103_EDFAEVCKR (UniProt Q9BU76) | -0.191 | -0.324
MMP14_P50281_574_RLLYCQR (UniProt P50281) | -0.106 | -0.136
MKI67_P46013_3229_CAENPK (UniProt P46013) | -0.0831 | -0.221
MMADHC_Q9H3L0_82_FQLPGNIGFDCHLNGTASQK (UniProt Q9H3L0) | 0.0172 | -0.152
MOB4_Q9Y3A3_188_QIFDEYENETFLCHR (UniProt Q9Y3A3) | 0.236 | 0.102
MINDY2_Q8NBR6_79_SLPDSASPAGSPEVPGPCSSSAGLDLK (UniProt Q8NBR6) | 0.105 | -0.447
MRC2_Q9UBG0_532_KGWTWHSPSCYWLGEDQVTYSEAR (UniProt Q9UBG0) | -0.0488 | -0.275
MPP6_Q9NZW5_236_CHFDYNPYNDNLIPCK (UniProt Q9NZW5) | 0.344 | 0.195
MPV17_P39210_59_TLTMVSLGCGFVGPVVGGWYK (UniProt P39210) | -0.119 | 0.00545
MPP2_Q14168_256_CHFDYDPAR (UniProt Q14168) | 0.102 | 0.0369
MRPL36_Q9P0J6_92_WYVYCK (UniProt Q9P0J6) | 0.00972 | 0.0844
MOCS3_O95396_179_YDVVADCSDNVPTR (UniProt O95396) | 0.229 | 0.144
MIEN1_Q9BRT3_33_IVVEYCEPCGFEATYLELASAVK (UniProt Q9BRT3) | -0.0733 | -0.00377
MPG_P29372_222_LCQALAINK (UniProt P29372) | -0.19 | -0.0993
MGA_Q8IWI9_1238_EEDKDPVYLYFESMMTCAR (UniProt Q8IWI9) | 0.0928 | 0.0487
MKLN1_Q9UL63_469_CLYVFGGQR (UniProt Q9UL63) | 0.0276 | 0.0158

Nothing new here: entries from further up.
Target | probe-labelled cysteine peptide fold change (10 µM) | probe-labelled cysteine peptide fold change (50 µM)
MGMT_P16455_24_LELSGCEQGLHEIK (UniProt P16455) | -0.216 | -0.404
MRPL38_Q96DV4_321_KHQETMTPAGLSFFQCR (UniProt Q96DV4) | 0.00503 | 0.134
MNDA_P41218_385_LVCGSHSFIK (UniProt P41218) | 0.0242 | 0.129
MMTAG2_Q9BU76_103_EDFAEVCKR (UniProt Q9BU76) | -0.191 | -0.324
MMP14_P50281_574_RLLYCQR (UniProt P50281) | -0.106 | -0.136
MKI67_P46013_3229_CAENPK (UniProt P46013) | -0.0831 | -0.221
MMADHC_Q9H3L0_82_FQLPGNIGFDCHLNGTASQK (UniProt Q9H3L0) | 0.0172 | -0.152
MOB4_Q9Y3A3_188_QIFDEYENETFLCHR (UniProt Q9Y3A3) | 0.236 | 0.102
MINDY2_Q8NBR6_79_SLPDSASPAGSPEVPGPCSSSAGLDLK (UniProt Q8NBR6) | 0.105 | -0.447
MRC2_Q9UBG0_532_KGWTWHSPSCYWLGEDQVTYSEAR (UniProt Q9UBG0) | -0.0488 | -0.275
MPP6_Q9NZW5_236_CHFDYNPYNDNLIPCK (UniProt Q9NZW5) | 0.344 | 0.195

Continuation:

Target | probe-labelled cysteine peptide fold change (10 µM) | probe-labelled cysteine peptide fold change (50 µM)
MRE11_P49959_249_HGSTNFIPEQFLDDFIDLVIWGHEHECK (UniProt P49959) | -0.0677 | -0.0212
MNDA_P41218_274_VITISDYSECK (UniProt P41218) | 0.0525 | 0.127
MNDA_P41218_61_FQGVACLDK (UniProt P41218) | -0.0164 | -0.0415
MIS18BP1_Q6P0N0_528_ATTTYDFDCDNLELK (UniProt Q6P0N0) | -0.0826 | 0.0461
MLH1_P40692_494_EMTAACTPR (UniProt P40692) | -0.0604 | -0.19
MMAA_Q8IVH4_184_LSVLAVDPSSCTSGGSLLGDK (UniProt Q8IVH4) | 0.477 | -0.0496
MOB3A_Q96BX8_186_IAQMGSEAHVNTCYK (UniProt Q96BX8) | 0.138 | 0.153
MICAL2_O94851_703_SLGSNQECGSSK (UniProt O94851) | -0.0534 | -0.125
MICAL3_Q7RTP6_97_CLIIGAGPCGLR (UniProt Q7RTP6) | -0.0826 | -0.0375
MKI67_P46013_3199_GKGEAGNSDSMCLR (UniProt P46013) | -0.13 | -0.372
MKI67_P46013_1285_ADVEGELLACR (UniProt P46013) | 0.163 | -0.17
MKI67_P46013_903_SEETNTEIVECILK (UniProt P46013) | -0.0239 | -0.132
MIER1_Q8N108_263_CNFDTEEALRR (UniProt Q8N108) | 0.186 | 0.152
MRPL10_Q7Z7H8_180_TVPFLPLLGGCIDDTILSR (UniProt Q7Z7H8) | -0.00605 | -0.0273
MPP1_Q00013_454_KLQEAFDQACSSPQWVPVSWVY (UniProt Q00013) | -0.0123 | -0.17
MRI1_Q9BV20_168_VTVLTHCNTGALATAGYGTALGVIR (UniProt Q9BV20) | 0.171 | -0.0174
MRPL44_Q9H9J2_96_TAFVNSCYIK (UniProt Q9H9J2) | -0.0292 | 0.0233
MON2_Q7Z3U7_212_SVSTLKPCAK (UniProt Q7Z3U7) | -0.0851 | -0.116
MMP14_P50281_127_WQHNEITFCIQNYTPK (UniProt P50281) | -0.0624 | 0.12
MGRN1_O60291_297_HLCLCTSCADTLR (UniProt O60291) | -0.11 | -0.0448
MRC2_Q9UBG0_351_DCSIALPYVCK (UniProt Q9UBG0) | 0.0538 | 0.164
MRPL39_Q9NYK5_152_SCAMMMGCVIER (UniProt Q9NYK5) | -0.0481 | 0.0803

Target | probe-labelled cysteine peptide fold change (10 µM) | probe-labelled cysteine peptide fold change (50 µM)
MOB3A_Q96BX8_88_VNLIYGTISDGCTEQSCPVMSGGPK (UniProt Q96BX8) | 0.127 | -0.0146
MNAT1_P51948_293_AASPQDLAGGYTSSLACHR (UniProt P51948) | -0.00413 | -0.239
MKLN1_Q9UL63_446_LLREDSCNAGPEDIQSR (UniProt Q9UL63) | 0.0545 | 0.179
MPI_P34949_289_GDCVECMACSDNTVR (UniProt P34949) | 0.104 | 0.117
MIB1_Q86YT6_62_CSGAYDLR (UniProt Q86YT6) | -0.0439 | 0.0552
MLKL_Q8NB16_184_CMQEIPQEQIK (UniProt Q8NB16) | -0.285 | -0.33
MORC3_Q14149_15_LSALCPK (UniProt Q14149) | -0.151 | -0.136
MRI1_Q9BV20_285_HHGIPFYVAAPSSSCDLR (UniProt Q9BV20) | 0.0223 | -0.165
MKRN2_Q9H000_262_FGILSNCNHTYCLSCIR (UniProt Q9H000) | -0.0498 | 0.0932
MLH1_P40692_77_EDLDIVCER (UniProt P40692) | 0.128 | 0.189
MRPL44_Q9H9J2_276_QSGGTTALPLYFVGLYCDK (UniProt Q9H9J2) | -0.0405 | -0.042
MKI67_P46013_773_EQPQLTSTCHIAISNSENLLGK (UniProt P46013) | 0.234 | -0.0412
MIS18BP1_Q6P0N0_918_SPEECQR (UniProt Q6P0N0) | -0.0309 | 0.181
MRPL44_Q9H9J2_167_NLVDFLTGEEVVCHVAR (UniProt Q9H9J2) | 0.159 | 0.17
MKRN1_Q9UHC7_259_SCIEAHEK (UniProt Q9UHC7) | -0.021 | -0.0543
MPG_P29372_56_AGQPHSSSDAAQAPAEQPHSSSDAAQAPCPR (UniProt P29372) | 0.193 | -0.822
MOSPD2_Q8NHP6_471_TSEDICLQLSR (UniProt Q8NHP6) | 0.0227 | -0.24
MRC2_Q9UBG0_187_IYGSEEDLCALPYHEVYTIQGNSHGKPCTIPFK (UniProt Q9UBG0) | 0.0318 | -0.065
MIF_P14174_81_LLCGLLAER (UniProt P14174) | -0.156 | -0.117
MKNK1_Q9BUB5_101_EVETLYQCQGNK (UniProt Q9BUB5) | 0.0574 | 0.0595
MORF4L2_Q15014_165_NVDAILEEYANCKK (UniProt Q15014) | -0.228 | -0.146
